PubChem BioAssay AID504444 (National Center for Advancing Translational Sciences (NCATS), 2011)
Among all 360,000 compounds or so, about 7,500 (2.1%) were called active. Inconclusive results, whose numbers are uncertain, are shown with a selection of clear calls. The call rests on the fitted dose curve; in most records, active means well fitted inhibition curve with a large enough effect; inconclusive means small, poorly fitted or top-dose-only effect, or effect the other way; inactive means flat fitted curve, though single readings scatter. A potency beside an inconclusive call is a rough fit, not a confirmed value.

test: Nrf2 qHTS screen for inhibitors; conditions: A549 ARE-Fluc reporter, luciferase luminescence, 18-24 h; activity change, negative = inhibition: at 46 µM (top of the series); further: nearly all actives have a fitted effect of over 60% in size
Outline: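 In this cell-based qHTS, ARE-driven firefly luciferase in A549 cells reports Nrf2 activity; the luminescent signal after BugLite lysis is the measured value, with a prior CellTiter-Fluor read for cell health.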
On the % scale 0 is the no-effect control and ±100 the full control effect; potency means the concentration at half of the fitted maximal effect.

Structure (SMILES)	Potency	activity change, negative = inhibition
Cc1ccc2cc(C(c3nnnn3C3CCCC3)N(Cc3ccco3)Cc3cccs3)c(=O)[nH]c2c1 (configuration not stated)	inconclusive: 14.6 µM [falling, partial curve, poor fit]	–
CN(C)CCCNC(=O)/C=C/c1ccc2c(c1)OCO2	–	inactive: -14.8%
CCOC(=O)C1(CCOc2ccccc2)CCN(Cc2cccc(-n3cccn3)c2)CC1	inconclusive: 14.6 µM [falling, partial curve, poor fit]	–
COc1cc(NC(=O)C/C(C)=N/NC(=O)c2ccccn2)c(OC)cc1Cl	inconclusive: 4.11 µM [activator, partial curve]	–
CCc1ccccc1N(C(C)=O)c1nc(CCl)cs1	inconclusive: 41.1 µM [falling, partial curve, poor fit]	–
Cc1cc(C)c2c(=N)c3ccccc3n(CCCCCCCCn3c4ccccc4c(=N)c4c(C)cc(C)nc43)c2n1	inconclusive: 16.4 µM [activator, partial curve]	–
COc1ccc(NC(=O)CSc2nccn2Cc2ccccc2)cc1	inconclusive: 2.91 µM [activator, full curve, poor fit]	–
COC(=O)Nc1ccc2c(c1)Nc1ccccc1CC2	inconclusive: 29.1 µM [falling, single point]	–
CC/C(=N\NC(=O)OC)c1ccc(OC(F)F)cc1	–	inactive: 9.87%
COc1ccc(C2C(=O)N(C3CCCCC3)CC(=O)N2C2CCCCC2)cc1 (configuration not stated)	–	inactive: -16.7%
O=C(O)CC/C(=N/NC(=O)CNC(=O)c1ccc2c(c1)OCCO2)c1ccccc1	inconclusive: 6.51 µM [activator, partial curve, poor fit]	–
O=S(=O)(Nc1ccc(-c2nnc(SCc3ccc(Cl)cc3)o2)cc1)c1ccccc1	inconclusive: 16.4 µM [falling, single point]	–
Cc1c(/C=N\NC(=O)c2cccc(F)c2)cnn1C	inconclusive: 5.8 µM [activator, partial curve, poor fit]	–
COc1ccccc1NC(=O)c1ccc(-c2ccccc2[N+](=O)[O-])o1	inconclusive: 25.9 µM [activator, single point]	–
CC(Sc1nnc(NC2CC2)s1)C(=O)Nc1ccc(S(N)(=O)=O)cc1 (configuration not stated)	inconclusive: 1.84 µM [activator, partial curve, poor fit]	–
CCOc1ccccc1C(=O)N[C@H](C(=O)Nc1nc2c(s1)CCCC2)C(C)C	inconclusive: 16.4 µM [activator, partial curve]	–
CCOC(=O)c1[nH]c2ccc(C)cc2c1N	inconclusive: 13 µM [activator, partial curve]	–
CC(=O)Nc1ccc(S(=O)(=O)NC(CSc2ccc(C(=O)O)cc2[N+](=O)[O-])C(=O)O)cc1 (configuration not stated)	inconclusive: 32.6 µM [activator, partial curve, poor fit]	–
CN(CC(=O)Nc1ccc(Cl)cc1)C(=O)CCc1nc2sc3c(c2c(=O)[nH]1)CCCC3	inconclusive: 16.4 µM [falling, partial curve, poor fit]	–
Cc1ccnc(NC(=O)Nc2ccc(F)cc2)c1	inconclusive: 4.61 µM [activator, full curve]	–
Cc1cccn2cc(-c3ccc(Cl)cc3)nc12	inconclusive: 3.26 µM [activator, partial curve, poor fit]	–

Three structures out of the list, ordered by molecular weight, rising:
Structure (SMILES)	Potency	activity change, negative = inhibition
CCOC(=O)c1[nH]c2ccc(C)cc2c1N	inconclusive: 13 µM [activator, partial curve]	–
CCOc1ccccc1C(=O)N[C@H](C(=O)Nc1nc2c(s1)CCCC2)C(C)C	inconclusive: 16.4 µM [activator, partial curve]	–
O=S(=O)(Nc1ccc(-c2nnc(SCc3ccc(Cl)cc3)o2)cc1)c1ccccc1	inconclusive: 16.4 µM [falling, single point]	–

Continuation:

Structure (SMILES)	Potency	activity change, negative = inhibition
CCOc1ccc(-c2nc(C#N)c(N3CCOCC3)o2)cc1	inconclusive: 1.84 µM [falling, full curve]	–
O=C(N/C(=C/C=C/c1ccccc1)C(=O)N1CCCCC1)c1ccc([N+](=O)[O-])cc1	–	inactive: -7.41%
Cn1cccc1/C=C1\SC(=Nc2ccc(O)cc2)NC1=O	inconclusive: 29.1 µM [activator, single point]	–
Cc1cc(C)cc(NC(=O)CCN2C(=O)c3ccccc3Sc3ncccc32)c1	–	inactive: 0.231%
Nc1nc2c(ncn2[C@H]2C[C@H](O)[C@@H](CO)O2)c(=O)[nH]1	inactive	–
O=C(NCc1cccnc1)c1cccs1	–	inactive: 16.9%
Cc1ccc(S(=O)(=O)/N=C(\N)Nc2nc(C)c3cc(C)ccc3n2)cc1	–	inactive: 7.56%
O=C(COC(=O)C1CC(=O)N(Cc2ccco2)C1)Nc1nc(-c2ccc(F)cc2)cs1 (configuration not stated)	inconclusive: 25.9 µM [activator, partial curve, poor fit]	–
CC(C(=O)N1CCCc2ccccc21)N1CCN(c2ccccn2)CC1 (configuration not stated)	–	inactive: -8.23%
Cc1cnc(NC(=O)/C=C/c2ccc(Br)o2)s1	inconclusive: 2.91 µM [activator, full curve]	–
O=C(CSc1nc2ccccc2nc1SCC(=O)N1CCCCC1)N1CCCCC1	inconclusive: 10.3 µM [falling, partial curve, poor fit]	–
Cc1ccc(S(=O)(=O)Nc2ccc3c(c2)CC(=O)N([C@H](C)CO)C[C@H](C)[C@H](CN(C)Cc2ccc4c(c2)OCO4)O3)cc1	inconclusive: 29.1 µM [falling, single point]	–
COc1cccc(/C=N/Nc2ncc(C(F)(F)F)cc2Cl)c1O	inconclusive: 20.6 µM [falling, single point]	–
Cc1noc2ncnc(N3CCN(c4cccc(Cl)c4)CC3)c12	inconclusive: 25.9 µM [falling, single point]	–
Cn1ncc(C#N)c1NC(=O)C1CC(c2ccc(Cl)c(Cl)c2)=NO1 (configuration not stated)	inconclusive: 2.59 µM [falling, partial curve]	–
Cc1ccccc1Nc1nnc(SCc2cc(=O)n3ccsc3n2)s1	inconclusive: 29.1 µM [falling, partial curve, poor fit]	–
Cc1ccc(C2=C/C(=C/c3cccnc3)C(=O)O2)c(C)c1	inconclusive: 4.11 µM [activator, full curve, poor fit]	–
COc1ccc(N2CCN(Cc3nc4c(c(=O)n(C)c(=O)n4C)n3Cc3cccc(C)c3)CC2)cc1	inconclusive: 2.31 µM [falling, partial curve]	–
COC(=O)N/N=C/c1cccs1	–	inactive: 4.87%
O=C(Nc1ccc2nc(SCC(=O)N3CCOCC3)sc2c1)c1ccc(Cl)cc1	–	inactive: -18.5%
CC(C)Cn1c(N)c(C(=O)COC(=O)C2Cc3ccccc3CN2S(C)(=O)=O)c(=O)n(C)c1=O (configuration not stated)	active: 20.6 µM	–
